According to the supplement of paper PMC8728848:
Some of the results follow.

How the values were obtained:
Test in all cases: glycan array binding signal (z-score within array); higher = stronger binding
Conditions in all cases: glycan notation: IUPAC condensed, linker removed
[1] = target: GlcNAc(b1-2)Gal(b1-3)GalNAc
Outline: (§1)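 From the Consortium for Functional Glycomics database, 3228 arrays were curated, keeping only those whose protein sequence was available. Binding is given as a within-array Z-score averaged across arrays sharing a protein sequence and across linkers. Negative Z-scores can be read as non-binding.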

[2] = target: GlcNAc(b1-2)Man(a1-3)[GlcNAc(b1-2)Man(a1-6)]Man(b1-4)GlcNAc(b1-4)GlcNAc
Outline: as §1

[3] = target: GlcNAc(b1-2)Man(a1-3)[GlcNAc(b1-2)Man(a1-6)]Man(b1-4)GlcNAc(b1-4)[Fuc(a1-6)]GlcNAc
Outline: as §1

[4] = target: GlcNAc(b1-2)Man(a1-3)[GlcNAc(b1-4)][GlcNAc(b1-2)Man(a1-6)]Man(b1-4)GlcNAc(b1-4)GlcNAc
Outline: as §1

[5] = target: GlcNAc(b1-2)Man(a1-3)[GlcNAc(b1-4)][GlcNAc(b1-2)Man(a1-6)]Man(b1-4)GlcNAc(b1-4)[Fuc(a1-6)]GlcNAc
Outline: as §1

[6] = target: GlcNAc(b1-2)[GlcNAc(b1-4)]Man(a1-3)[GlcNAc(b1-2)Man(a1-6)]Man(b1-4)GlcNAc(b1-4)GlcNAc
Outline: as §1

[7] = target: GlcNAc(b1-2)[GlcNAc(b1-4)]Man(a1-3)[GlcNAc(b1-4)][GlcNAc(b1-2)Man(a1-6)]Man(b1-4)GlcNAc(b1-4)GlcNAc
Outline: as §1

[8] = target: GlcNAc(b1-2)[GlcNAc(b1-4)]Man(a1-3)[GlcNAc(b1-4)][GlcNAc(b1-2)[GlcNAc(b1-6)]Man(a1-6)]Man(b1-4)GlcNAc(b1-4)GlcNAc
Outline: as §1

[9] = target: GlcNAc(b1-2)[GlcNAc(b1-4)]Man(a1-3)[GlcNAc(b1-4)][GlcNAc(b1-2)[GlcNAc(b1-6)]Man(a1-6)]Man(b1-4)GlcNAc(b1-4)[Fuc(a1-6)]GlcNAc
Outline: as §1

[10] = target: GlcNAc(b1-2)[GlcNAc(b1-6)]Man(a1-6)[GlcNAc(b1-2)Man(a1-3)]Man(b1-4)GlcNAc(b1-4)GlcNAc
Outline: as §1

[11] = target: GlcNAc(b1-2)[GlcNAc(b1-6)]Man(a1-6)[GlcNAc(b1-2)Man(a1-3)]Man(b1-4)GlcNAc(b1-4)[Fuc(a1-6)]GlcNAc
Outline: as §1

[12] = target: GlcNAc(b1-2)[GlcNAc(b1-6)]Man(a1-6)[GlcNAc(b1-4)][GlcNAc(b1-2)Man(a1-3)]Man(b1-4)GlcNAc(b1-4)GlcNAc
Outline: as §1

GlcNAc(b1-3)Fuc = target: GlcNAc(b1-3)Fuc
Outline: as §1

GlcNAc(b1-3)Gal = target: GlcNAc(b1-3)Gal
Outline: as §1

[13] = target: GlcNAc(b1-3)Gal(b1-3)GalNAc
Outline: as §1

GlcNAc(b1-3)Gal(b1-4)Glc = target: GlcNAc(b1-3)Gal(b1-4)Glc
Outline: as §1

[14] = target: GlcNAc(b1-3)Gal(b1-4)GlcNAc
Outline: as §1

[15] = target: GlcNAc(b1-3)Gal(b1-4)GlcNAc(b1-2)Man(a1-3)[GlcNAc(b1-3)Gal(b1-4)GlcNAc(b1-2)Man(a1-6)]Man(b1-4)GlcNAc(b1-4)GlcNAc
Outline: as §1

[16] = target: GlcNAc(b1-3)Gal(b1-4)GlcNAc(b1-2)Man(a1-3)[GlcNAc(b1-3)Gal(b1-4)GlcNAc(b1-2)Man(a1-6)]Man(b1-4)GlcNAc(b1-4)[Fuc(a1-6)]GlcNAc
Outline: as §1

[17] = target: GlcNAc(b1-3)Gal(b1-4)GlcNAc(b1-2)[GlcNAc(b1-3)Gal(b1-4)GlcNAc(b1-6)]Man(a1-6)[GlcNAc(b1-3)Gal(b1-4)GlcNAc(b1-2)Man(a1-3)]Man(b1-4)GlcNAc(b1-4)GlcNAc
Outline: as §1

[18] = target: GlcNAc(b1-3)Gal(b1-4)GlcNAc(b1-3)Gal(b1-4)GlcNAc
Outline: as §1

[19] = target: GlcNAc(b1-3)Gal(b1-4)GlcNAc(b1-3)Gal(b1-4)GlcNAc(b1-2)Man(a1-3)[GlcNAc(b1-3)Gal(b1-4)GlcNAc(b1-3)Gal(b1-4)GlcNAc(b1-2)Man(a1-6)]Man(b1-4)GlcNAc(b1-4)GlcNAc
Outline: as §1

[20] = target: GlcNAc(b1-3)Gal(b1-4)GlcNAc(b1-3)Gal(b1-4)GlcNAc(b1-2)Man(a1-3)[GlcNAc(b1-3)Gal(b1-4)GlcNAc(b1-3)Gal(b1-4)GlcNAc(b1-2)Man(a1-6)]Man(b1-4)GlcNAc(b1-4)[Fuc(a1-6)]GlcNAc
Outline: as §1

[21] = target: GlcNAc(b1-3)Gal(b1-4)GlcNAc(b1-3)Gal(b1-4)GlcNAc(b1-2)[GlcNAc(b1-3)Gal(b1-4)GlcNAc(b1-3)Gal(b1-4)GlcNAc(b1-6)]Man(a1-6)[GlcNAc(b1-3)Gal(b1-4)GlcNAc(b1-3)Gal(b1-4)GlcNAc(b1-2)Man(a1-3)]Man(b1-4)GlcNAc(b1-4)[Fuc(a1-6)]GlcNAc
Outline: as §1

[22] = target: GlcNAc(b1-3)Gal(b1-4)GlcNAc(b1-3)Gal(b1-4)GlcNAc(b1-3)Gal(b1-4)GlcNAc(b1-2)Man(a1-3)[GlcNAc(b1-3)Gal(b1-4)GlcNAc(b1-3)Gal(b1-4)GlcNAc(b1-3)Gal(b1-4)GlcNAc(b1-2)Man(a1-6)]Man(b1-4)GlcNAc(b1-4)GlcNAc
Outline: as §1

[23] = target: GlcNAc(b1-3)Gal(b1-4)GlcNAc(b1-3)Gal(b1-4)GlcNAc(b1-3)Gal(b1-4)GlcNAc(b1-2)Man(a1-3)[GlcNAc(b1-3)Gal(b1-4)GlcNAc(b1-3)Gal(b1-4)GlcNAc(b1-3)Gal(b1-4)GlcNAc(b1-2)Man(a1-6)]Man(b1-4)GlcNAc(b1-4)[Fuc(a1-6)]GlcNAc
Outline: as §1

[24] = target: GlcNAc(b1-3)Gal(b1-4)GlcNAc(b1-3)Gal(b1-4)GlcNAc(b1-3)Gal(b1-4)GlcNAc(b1-2)[GlcNAc(b1-3)Gal(b1-4)GlcNAc(b1-3)Gal(b1-4)GlcNAc(b1-3)Gal(b1-4)GlcNAc(b1-6)]Man(a1-6)[GlcNAc(b1-3)Gal(b1-4)GlcNAc(b1-3)Gal(b1-4)GlcNAc(b1-3)Gal(b1-4)GlcNAc(b1-2)Man(a1-3)]Man(b1-4)GlcNAc(b1-4)[Fuc(a1-6)]GlcNAc
Outline: as §1

[25] = target: GlcNAc(b1-3)Gal(b1-4)GlcNAc(b1-3)Gal(b1-4)GlcNAc(b1-3)Gal(b1-4)GlcNAc(b1-3)Gal(b1-4)GlcNAc(b1-2)Man(a1-3)[GlcNAc(b1-3)Gal(b1-4)GlcNAc(b1-3)Gal(b1-4)GlcNAc(b1-3)Gal(b1-4)GlcNAc(b1-3)Gal(b1-4)GlcNAc(b1-2)Man(a1-6)]Man(b1-4)GlcNAc(b1-4)GlcNAc
Outline: as §1

[26] = target: GlcNAc(b1-3)Gal(b1-4)GlcNAc(b1-3)Gal(b1-4)GlcNAc(b1-3)Gal(b1-4)GlcNAc(b1-3)Gal(b1-4)GlcNAc(b1-2)Man(a1-3)[GlcNAc(b1-3)Gal(b1-4)GlcNAc(b1-3)Gal(b1-4)GlcNAc(b1-3)Gal(b1-4)GlcNAc(b1-3)Gal(b1-4)GlcNAc(b1-2)Man(a1-6)]Man(b1-4)GlcNAc(b1-4)[Fuc(a1-6)]GlcNAc
Outline: as §1

[27] = target: GlcNAc(b1-3)Gal(b1-4)GlcNAc(b1-3)Gal(b1-4)GlcNAc(b1-3)Gal(b1-4)GlcNAc(b1-3)Gal(b1-4)GlcNAc(b1-2)[GlcNAc(b1-3)Gal(b1-4)GlcNAc(b1-3)Gal(b1-4)GlcNAc(b1-3)Gal(b1-4)GlcNAc(b1-3)Gal(b1-4)GlcNAc(b1-6)]Man(a1-6)[GlcNAc(b1-3)Gal(b1-4)GlcNAc(b1-3)Gal(b1-4)GlcNAc(b1-3)Gal(b1-4)GlcNAc(b1-3)Gal(b1-4)GlcNAc(b1-2)Man(a1-3)]Man(b1-4)GlcNAc(b1-4)[Fuc(a1-6)]GlcNAc
Outline: as §1

B1: GS7807I-bvu-563-22-563 (Bacteroides vulgatus) (protein)
chain: IFSSCTDDFEKLNTSNIQVDPADLPFAAQCTEPMTYCYPPQQNMFQFWTNLTIDLYGGYFMTPNGNFTNGDMGENRGHSGGMYENYYLHIFNNTRRIIAQCDASGERGLSGVMRIVQAYGTLMTTDAYGPIPYSSILSGENEVYFEFDSQKDLYKAMLEDLSTAITDISAMGADEIAKLKSFDCWCNGDKDLWVKIANTMKLRMALRLSKRETEAGNAGMNLKAIATEAAQNTLATVNKDILIDKSLENEMWLMFNWGDCGFNANLVTIMSGTKDPRQPLYMTLNTGDIKNEAGTTTVAANSQYLGIRFASGLPAKPNSWGNFSGWIQGNNGSSYSMPLPIMKAAEAYFLLAEAKLRWDIGSESVKNLYENGIRVSMTNELAYRGAYAGIKEYPEGAVDAYINGTSTQIDYTDPIKAELSTPAVNKLSVKWDESASNEEKLERIITQKWLALFPLSTEGWAEQRRTGYPRFFPAFVNESNGAVNTEEGVRRVIYSSQAYDANAKGVEGGIKLLDEENSSKFGISGDKGGTHLWWDNADKGNF
glycan array binding signal (z-score) [1]: 0.388
glycan array binding signal (z-score) [2]: -0.694
glycan array binding signal (z-score) [3]: 0.137
glycan array binding signal (z-score) [4]: -0.554
glycan array binding signal (z-score) [5]: -0.51
glycan array binding signal (z-score) [6]: -1.46
glycan array binding signal (z-score) [7]: -0.633
glycan array binding signal (z-score) [8]: 0.285
glycan array binding signal (z-score) [9]: -1.04
glycan array binding signal (z-score) [10]: -0.866
glycan array binding signal (z-score) [11]: 2.33
glycan array binding signal (z-score) [12]: -0.587
glycan array binding signal (z-score) (GlcNAc(b1-3)Fuc): -0.138
glycan array binding signal (z-score) (GlcNAc(b1-3)Gal): -1.09
glycan array binding signal (z-score) [13]: 0.216
glycan array binding signal (z-score) (GlcNAc(b1-3)Gal(b1-4)Glc): -1.17
glycan array binding signal (z-score) [14]: 0.136
glycan array binding signal (z-score) [15]: -0.349
glycan array binding signal (z-score) [16]: 0.728
glycan array binding signal (z-score) [17]: 0.01
glycan array binding signal (z-score) [18]: -0.488
glycan array binding signal (z-score) [19]: 2.79
glycan array binding signal (z-score) [20]: 0.107
glycan array binding signal (z-score) [21]: 1.6
glycan array binding signal (z-score) [22]: 0.54
glycan array binding signal (z-score) [23]: -0.035
glycan array binding signal (z-score) [24]: 3.79
glycan array binding signal (z-score) [25]: 0.287
glycan array binding signal (z-score) [26]: -0.08
glycan array binding signal (z-score) [27]: 2.23
